Over roughly 33,000 sequences, “E-score (-0.5 to 0.5)” has its median near -0.015; the highest 2% begin near 0.3. Some of the results follow.
Each sequence was assayed against T1, Abf1 (UniProt P14164) (assay: PBM E-score (8-mer binding enrichment) (E-score (-0.5 to 0.5)); higher = stronger / more preferred TF binding). Conditions: protein concentration: 200 nM; construct: GST-full length.
T1 sequence: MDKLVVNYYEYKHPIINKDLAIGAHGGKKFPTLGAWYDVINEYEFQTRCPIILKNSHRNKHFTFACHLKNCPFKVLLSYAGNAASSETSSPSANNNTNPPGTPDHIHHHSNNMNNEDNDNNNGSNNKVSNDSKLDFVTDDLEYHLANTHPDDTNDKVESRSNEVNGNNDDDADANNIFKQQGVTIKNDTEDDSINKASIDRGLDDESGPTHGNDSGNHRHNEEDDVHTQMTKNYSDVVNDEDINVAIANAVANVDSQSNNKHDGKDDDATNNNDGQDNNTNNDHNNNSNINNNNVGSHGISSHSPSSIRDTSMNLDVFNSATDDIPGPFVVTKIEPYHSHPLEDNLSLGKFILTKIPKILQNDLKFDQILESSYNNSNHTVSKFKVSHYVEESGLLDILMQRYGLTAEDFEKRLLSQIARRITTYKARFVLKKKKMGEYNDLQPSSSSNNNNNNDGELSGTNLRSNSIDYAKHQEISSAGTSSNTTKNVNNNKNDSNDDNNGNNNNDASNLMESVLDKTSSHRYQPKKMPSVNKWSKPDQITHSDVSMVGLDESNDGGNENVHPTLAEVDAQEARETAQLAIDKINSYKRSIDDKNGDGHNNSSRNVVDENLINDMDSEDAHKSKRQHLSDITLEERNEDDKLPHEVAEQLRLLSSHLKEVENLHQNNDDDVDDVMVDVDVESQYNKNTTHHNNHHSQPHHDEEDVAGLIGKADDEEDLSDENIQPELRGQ
Outline: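 Using PURExpress in vitro transcription/translation, GST-tagged yeast transcription factors were made in full-length or DNA-binding-domain form. These were applied at about 100-200 nM to double-stranded universal all-10-mer Agilent arrays, and bound protein was detected with fluorescent anti-GST. Scans were normalised with masliner before the Universal PBM Analysis Suite assigned E-scores to ungapped eight-base words pooled with their reverse complements.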

In order of falling “PBM E-score” value:
1. AGTGACAA  0.439
2. CGATATCG  0.372
3. ATATGATA  0.316
4. CGACGTGA  0.297
5. TTACGAAA  0.279
6. AACAACGG  0.274
7. CGTGCGTA  0.272
8. TGACCTAA  0.268
9. TCACGACA  0.257
10. AATCATTA  0.251
11. CGACGACC  0.243
12. CGTGCGAC  0.243
13. CTAAGATC  0.226
14. CATCGCGA  0.2
15. AATAATTA  0.2
16. ATTATATG  0.196
17. ACGTAGCA  0.187
18. TGCGAAAA  0.175
19. ATTAGTAC  0.169
20. CGTAGTCA  0.165
21. GCACGGCA  0.162
22. AGGTGACT  0.158
23. AAAAACAA  0.153
24. AACGGAAT  0.15
25. AGCTCAAA  0.148
26. CCAATATC  0.145
27. ACGACTCG  0.144
28. GTCCGGGA  0.135
29. ATATGGAG  0.131
30. GAAAAGTC  0.128
31. CGAGCACA  0.127
32. ACAACAAC  0.124
33. AGAATGCT  0.121
34. ACCGTACC  0.118
35. ACGGTCGG  0.118
36. ACGAATTC  0.116
37. CGGTAATA  0.114
38. CGGTCAAA  0.109
39. AGACGTTG  0.109
40. GAGGATAC  0.104
41. GATACTAC  0.101
42. AAGCCATT  0.101
43. AAGAAAGA  0.1
44. CGTATCTA  0.0946
45. GCAGATCC  0.0904
46. ATCTCACA  0.0879
47. AAATTCCA  0.0868
48. ACTTGAAT  0.0842
49. GAATGTAA  0.0829
50. ACTCAAAT  0.0793
51. ATGGCGAA  0.0789
52. GAGTGCGC  0.0788
53. GATAGACA  0.0719
54. CGCGCTAA  0.0689
55. AAGTATGG  0.067
56. TCAGAGCA  0.0639
57. GTCGGGCA  0.0625
58. GAATATAA  0.06
59. CGTCCTCA  0.0561
60. AACTATTG  0.0538
61. ATGAAACG  0.0474
62. ACGCTGTG  0.0466
63. CCTCACGA  0.0455
64. CGACCTCC  0.0447
65. AAGAGAGG  0.0446
66. CTCAATGA  0.0427
67. CCTACTTC  0.0403
68. ATCTCAAG  0.0391
69. CCGGTCAA  0.0385
70. GTCCATCA  0.0377
71. ATAGTTGC  0.0289
72. ATGGGCGG  0.0256
73. AGATTAGG  0.0252
74. CAGGTAAC  0.0232
75. CATTAGCA  0.0204
76. GGCGGATA  0.0201
77. TACAGAAA  0.02
78. AAATCGAT  0.0198
79. ATTCCAAC  0.0185
80. GGTTCTCA  0.0135
81. ATAGCTTC  0.0125
82. CTAGAAAC  0.0109
83. AGTAGGCA  0.00391
84. GGTAGGTA  0.00297
85. AAACATTC  0.00278
86. CACGGCTG  0.00248
87. ATTATTGA  0.00194
88. GACAACTC  -0.0011
89. CTTTGCAA  -0.00259
90. ATAAGGCG  -0.0135
91. GCGTCCGA  -0.0138
92. TGATCGCA  -0.0164
93. TAGGACCA  -0.0193
94. CCCCGTAG  -0.021
95. CCCCGTAA  -0.0248
96. GTACCGAA  -0.0301
97. ACCGGAAC  -0.0354
98. CCAGTTCA  -0.0506
99. CTTTCCGC  -0.0512
100. CCAGCCAC  -0.0544
101. AGGGTTGC  -0.0578
102. GTAAGGCA  -0.0597
103. ACCTAGAG  -0.0622
104. GGCTGAGA  -0.0634
105. AAATGTTG  -0.0635
106. ATAATTCC  -0.0674
107. AAGGTTAA  -0.068
108. AGTAACCC  -0.0694
109. AATGCCCT  -0.0718
110. GACTTAAC  -0.0733
111. GGCGCTAA  -0.0737
112. AGATGAGG  -0.0744
113. GATCCCGA  -0.0793
114. ACCCGTTG  -0.0814
115. CAAGACTC  -0.0848
116. CACAGGAC  -0.0865
117. AGTGGCAG  -0.0869
118. ACAGAAAC  -0.0883
119. CGCACCAA  -0.0891
120. AGCCGGAA  -0.0916
121. ATGCAGAG  -0.094
122. CTCGGGTC  -0.0943
123. GGTGCCGA  -0.0978
124. CATCCAAA  -0.102
125. ACCAGCCG  -0.109
126. TACATGGA  -0.11
127. AGGTCCCG  -0.113
128. ATCTGACA  -0.114
129. CCCAATAG  -0.119
130. TAACATTA  -0.121
131. CGCTCCAG  -0.122
132. CAGGTGGC  -0.126
133. ATCCTGTG  -0.127
134. CCATGTAG  -0.127
135. CACTTCGG  -0.135
136. AGTAGTTC  -0.136
137. CCCAAAGC  -0.137
138. GACTCCGC  -0.14
139. AGGAGTGC  -0.144
140. CGGCACCC  -0.145
141. AGCTCTCG  -0.145
142. CCTCAGTA  -0.167
143. CCACATTC  -0.169
144. GAGCCTAC  -0.171
145. GCCAACCA  -0.172
146. AAAGGGGT  -0.188
147. GGGATCGA  -0.188
148. GGGAGGTA  -0.191
149. GAAACCTC  -0.194
150. AGCAAAGC  -0.2
151. ACTTTAGG  -0.202
152. AGGCTTGA  -0.211
153. ACAGCCGA  -0.213
154. GGAGGAAC  -0.218
155. CTGGGAGA  -0.224
156. CCAGTCGG  -0.229
157. AGGAGGCC  -0.239
158. AGCCTTTG  -0.259
159. GCCCGGCC  -0.259
160. AGCTGGGG  -0.268
161. CAAGCGCC  -0.269
162. CCATGGTC  -0.27
163. ACCTACCC  -0.27
164. ACCCCCTC  -0.296
165. AGCGTTTC  -0.303
166. CCCTCAAC  -0.305
167. CCTCTCAG  -0.306
168. CCTCTCCG  -0.315
169. CAGCCCCC  -0.329
170. CGCCTTCC  -0.336
171. AGGGGGCC  -0.427
172. CCCCCGGC  -0.467
